# Measured values published in the supplement of paper PMC7666118.
# Sequences of proteins named here, by UniProt entry; tags and fusion partners are left off. A change or cut given only in a name is not applied to a line headed by its entry.
# UniProt P52789: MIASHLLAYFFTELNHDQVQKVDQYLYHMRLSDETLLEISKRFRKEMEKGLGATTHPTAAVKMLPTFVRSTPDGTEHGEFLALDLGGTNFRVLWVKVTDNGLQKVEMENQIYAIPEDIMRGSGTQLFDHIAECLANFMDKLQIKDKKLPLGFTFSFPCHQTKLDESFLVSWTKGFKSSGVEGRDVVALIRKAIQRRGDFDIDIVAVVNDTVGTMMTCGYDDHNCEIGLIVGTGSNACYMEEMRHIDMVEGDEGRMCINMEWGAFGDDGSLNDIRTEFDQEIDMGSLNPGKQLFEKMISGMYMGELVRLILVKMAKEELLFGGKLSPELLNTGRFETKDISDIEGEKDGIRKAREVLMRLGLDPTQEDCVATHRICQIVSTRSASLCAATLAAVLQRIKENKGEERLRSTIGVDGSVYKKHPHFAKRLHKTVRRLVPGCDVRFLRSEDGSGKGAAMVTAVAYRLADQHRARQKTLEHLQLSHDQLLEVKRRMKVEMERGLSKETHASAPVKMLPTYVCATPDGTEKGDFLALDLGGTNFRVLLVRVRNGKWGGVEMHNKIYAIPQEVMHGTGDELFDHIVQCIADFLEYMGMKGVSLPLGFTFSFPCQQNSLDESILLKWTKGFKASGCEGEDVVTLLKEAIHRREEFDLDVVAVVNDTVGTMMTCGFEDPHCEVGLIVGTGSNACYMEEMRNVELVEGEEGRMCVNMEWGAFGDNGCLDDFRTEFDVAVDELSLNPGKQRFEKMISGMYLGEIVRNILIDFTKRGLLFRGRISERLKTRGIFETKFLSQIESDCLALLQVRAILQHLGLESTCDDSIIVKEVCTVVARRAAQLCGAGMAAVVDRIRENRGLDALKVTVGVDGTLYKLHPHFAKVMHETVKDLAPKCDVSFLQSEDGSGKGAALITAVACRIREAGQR
# UniProt Q12789: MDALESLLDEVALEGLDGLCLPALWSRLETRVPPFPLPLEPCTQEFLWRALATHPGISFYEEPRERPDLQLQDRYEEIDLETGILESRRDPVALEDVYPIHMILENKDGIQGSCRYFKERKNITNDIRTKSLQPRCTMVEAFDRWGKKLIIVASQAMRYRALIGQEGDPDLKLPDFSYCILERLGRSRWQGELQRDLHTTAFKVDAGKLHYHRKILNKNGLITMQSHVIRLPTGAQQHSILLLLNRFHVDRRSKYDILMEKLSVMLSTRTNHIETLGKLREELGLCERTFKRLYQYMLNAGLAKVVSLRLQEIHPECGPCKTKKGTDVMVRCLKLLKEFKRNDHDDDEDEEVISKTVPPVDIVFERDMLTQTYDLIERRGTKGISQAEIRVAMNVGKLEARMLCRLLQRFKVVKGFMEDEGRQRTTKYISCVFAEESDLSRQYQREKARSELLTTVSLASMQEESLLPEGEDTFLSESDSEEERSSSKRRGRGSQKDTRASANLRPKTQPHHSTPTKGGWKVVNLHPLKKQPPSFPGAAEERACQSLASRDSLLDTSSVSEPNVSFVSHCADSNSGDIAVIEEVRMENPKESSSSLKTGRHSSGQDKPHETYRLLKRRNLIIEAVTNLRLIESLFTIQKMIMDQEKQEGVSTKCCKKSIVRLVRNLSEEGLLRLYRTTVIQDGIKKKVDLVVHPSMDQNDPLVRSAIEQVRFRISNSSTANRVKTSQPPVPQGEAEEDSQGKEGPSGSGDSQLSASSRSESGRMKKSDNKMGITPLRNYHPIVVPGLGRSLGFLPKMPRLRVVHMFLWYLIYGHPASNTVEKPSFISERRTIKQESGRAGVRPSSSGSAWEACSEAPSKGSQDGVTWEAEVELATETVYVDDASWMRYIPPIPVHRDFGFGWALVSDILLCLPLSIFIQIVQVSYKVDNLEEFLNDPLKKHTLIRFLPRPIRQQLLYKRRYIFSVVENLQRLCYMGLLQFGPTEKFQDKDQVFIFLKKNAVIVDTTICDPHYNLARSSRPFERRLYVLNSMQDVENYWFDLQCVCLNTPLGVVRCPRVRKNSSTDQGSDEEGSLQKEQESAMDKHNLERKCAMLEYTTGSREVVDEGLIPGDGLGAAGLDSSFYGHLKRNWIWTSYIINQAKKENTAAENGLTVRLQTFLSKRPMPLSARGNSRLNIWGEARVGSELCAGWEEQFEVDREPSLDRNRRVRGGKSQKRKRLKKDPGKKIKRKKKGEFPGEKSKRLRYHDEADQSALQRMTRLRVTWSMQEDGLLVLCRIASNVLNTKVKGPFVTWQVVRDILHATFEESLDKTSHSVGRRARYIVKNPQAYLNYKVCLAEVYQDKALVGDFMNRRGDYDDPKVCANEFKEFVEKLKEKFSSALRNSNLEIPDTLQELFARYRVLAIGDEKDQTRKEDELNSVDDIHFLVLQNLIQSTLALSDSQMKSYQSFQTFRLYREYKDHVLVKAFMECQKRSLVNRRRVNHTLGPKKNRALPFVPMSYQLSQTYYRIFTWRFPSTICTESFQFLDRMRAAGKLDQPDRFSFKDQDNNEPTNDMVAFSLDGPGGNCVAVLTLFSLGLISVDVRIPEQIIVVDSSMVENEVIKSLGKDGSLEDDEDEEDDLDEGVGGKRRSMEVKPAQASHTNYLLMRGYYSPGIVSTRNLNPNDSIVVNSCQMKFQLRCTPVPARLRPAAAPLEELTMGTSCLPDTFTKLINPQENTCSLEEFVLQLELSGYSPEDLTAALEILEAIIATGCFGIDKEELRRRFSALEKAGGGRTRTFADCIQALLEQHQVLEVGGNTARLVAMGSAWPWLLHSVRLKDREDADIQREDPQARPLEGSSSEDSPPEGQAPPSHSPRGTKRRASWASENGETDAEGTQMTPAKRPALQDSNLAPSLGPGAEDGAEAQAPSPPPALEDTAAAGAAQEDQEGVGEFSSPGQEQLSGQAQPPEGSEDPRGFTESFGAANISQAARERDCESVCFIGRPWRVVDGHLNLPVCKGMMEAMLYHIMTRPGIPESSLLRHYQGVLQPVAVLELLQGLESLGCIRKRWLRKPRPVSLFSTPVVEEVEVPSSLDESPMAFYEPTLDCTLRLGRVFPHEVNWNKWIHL
# UniProt P69905, whole entry: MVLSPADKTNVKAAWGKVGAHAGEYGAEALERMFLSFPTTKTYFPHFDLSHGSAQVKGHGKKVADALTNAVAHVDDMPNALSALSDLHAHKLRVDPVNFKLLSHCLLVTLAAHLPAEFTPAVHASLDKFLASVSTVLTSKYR
# UniProt Q8NBJ4: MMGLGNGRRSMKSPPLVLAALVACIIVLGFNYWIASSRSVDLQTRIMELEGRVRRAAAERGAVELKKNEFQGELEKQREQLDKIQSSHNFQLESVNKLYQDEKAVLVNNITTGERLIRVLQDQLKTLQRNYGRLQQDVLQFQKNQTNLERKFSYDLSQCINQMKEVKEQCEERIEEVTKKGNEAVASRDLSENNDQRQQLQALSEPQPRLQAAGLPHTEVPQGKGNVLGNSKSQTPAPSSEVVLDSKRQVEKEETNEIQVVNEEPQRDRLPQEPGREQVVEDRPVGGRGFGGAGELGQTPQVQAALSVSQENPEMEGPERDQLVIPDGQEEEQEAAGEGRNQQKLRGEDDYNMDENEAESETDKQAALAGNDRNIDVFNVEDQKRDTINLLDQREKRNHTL
# UniProt Q92947: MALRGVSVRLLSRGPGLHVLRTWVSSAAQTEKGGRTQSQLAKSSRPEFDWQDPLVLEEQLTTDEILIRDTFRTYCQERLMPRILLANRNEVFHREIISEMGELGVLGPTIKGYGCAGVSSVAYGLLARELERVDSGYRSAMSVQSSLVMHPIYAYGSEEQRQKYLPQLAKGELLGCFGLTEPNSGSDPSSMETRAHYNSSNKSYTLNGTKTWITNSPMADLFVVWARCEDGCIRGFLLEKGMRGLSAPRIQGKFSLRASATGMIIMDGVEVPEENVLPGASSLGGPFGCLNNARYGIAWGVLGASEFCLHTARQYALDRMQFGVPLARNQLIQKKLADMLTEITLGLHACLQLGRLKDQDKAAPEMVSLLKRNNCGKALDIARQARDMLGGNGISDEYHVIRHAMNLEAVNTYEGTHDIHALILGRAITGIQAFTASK
# UniProt Q14344, whole entry: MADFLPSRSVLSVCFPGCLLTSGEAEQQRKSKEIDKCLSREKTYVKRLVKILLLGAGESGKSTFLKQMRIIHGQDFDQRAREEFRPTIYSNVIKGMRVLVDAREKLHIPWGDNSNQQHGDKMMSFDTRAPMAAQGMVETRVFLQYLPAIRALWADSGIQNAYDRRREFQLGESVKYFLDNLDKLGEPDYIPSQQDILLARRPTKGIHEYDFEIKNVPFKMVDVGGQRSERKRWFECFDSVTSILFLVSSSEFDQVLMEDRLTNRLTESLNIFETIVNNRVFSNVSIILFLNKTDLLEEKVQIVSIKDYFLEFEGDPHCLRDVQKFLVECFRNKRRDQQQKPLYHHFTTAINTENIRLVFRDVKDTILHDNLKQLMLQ
# UniProt Q9HCN4, whole entry: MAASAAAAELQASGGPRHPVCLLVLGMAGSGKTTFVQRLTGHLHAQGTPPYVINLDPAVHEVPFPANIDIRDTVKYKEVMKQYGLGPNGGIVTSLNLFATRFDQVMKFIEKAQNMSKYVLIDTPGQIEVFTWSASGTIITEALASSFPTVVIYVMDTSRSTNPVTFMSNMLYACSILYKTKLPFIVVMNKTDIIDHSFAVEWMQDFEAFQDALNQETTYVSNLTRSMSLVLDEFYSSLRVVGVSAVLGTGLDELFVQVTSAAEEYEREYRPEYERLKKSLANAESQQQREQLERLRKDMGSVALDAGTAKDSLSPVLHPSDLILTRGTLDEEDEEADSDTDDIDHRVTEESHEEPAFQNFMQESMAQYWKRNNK
# UniProt P08236: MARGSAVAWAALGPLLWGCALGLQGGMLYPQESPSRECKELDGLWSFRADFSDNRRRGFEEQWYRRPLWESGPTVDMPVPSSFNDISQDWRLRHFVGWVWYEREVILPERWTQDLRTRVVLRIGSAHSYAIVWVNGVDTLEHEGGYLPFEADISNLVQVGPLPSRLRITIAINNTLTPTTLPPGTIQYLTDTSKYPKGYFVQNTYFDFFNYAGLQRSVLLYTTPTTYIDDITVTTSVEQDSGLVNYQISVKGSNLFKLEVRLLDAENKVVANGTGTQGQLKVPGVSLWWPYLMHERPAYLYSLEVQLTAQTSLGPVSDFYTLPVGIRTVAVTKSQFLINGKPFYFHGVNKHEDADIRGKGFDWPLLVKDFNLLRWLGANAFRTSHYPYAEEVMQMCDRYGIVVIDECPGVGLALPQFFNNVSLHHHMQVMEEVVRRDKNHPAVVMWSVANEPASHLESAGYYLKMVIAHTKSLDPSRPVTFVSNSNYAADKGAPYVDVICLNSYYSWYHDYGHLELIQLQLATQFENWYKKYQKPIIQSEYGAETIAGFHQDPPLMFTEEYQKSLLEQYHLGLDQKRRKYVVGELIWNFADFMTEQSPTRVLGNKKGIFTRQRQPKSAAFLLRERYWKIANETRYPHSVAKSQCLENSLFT
# UniProt Q8NG08: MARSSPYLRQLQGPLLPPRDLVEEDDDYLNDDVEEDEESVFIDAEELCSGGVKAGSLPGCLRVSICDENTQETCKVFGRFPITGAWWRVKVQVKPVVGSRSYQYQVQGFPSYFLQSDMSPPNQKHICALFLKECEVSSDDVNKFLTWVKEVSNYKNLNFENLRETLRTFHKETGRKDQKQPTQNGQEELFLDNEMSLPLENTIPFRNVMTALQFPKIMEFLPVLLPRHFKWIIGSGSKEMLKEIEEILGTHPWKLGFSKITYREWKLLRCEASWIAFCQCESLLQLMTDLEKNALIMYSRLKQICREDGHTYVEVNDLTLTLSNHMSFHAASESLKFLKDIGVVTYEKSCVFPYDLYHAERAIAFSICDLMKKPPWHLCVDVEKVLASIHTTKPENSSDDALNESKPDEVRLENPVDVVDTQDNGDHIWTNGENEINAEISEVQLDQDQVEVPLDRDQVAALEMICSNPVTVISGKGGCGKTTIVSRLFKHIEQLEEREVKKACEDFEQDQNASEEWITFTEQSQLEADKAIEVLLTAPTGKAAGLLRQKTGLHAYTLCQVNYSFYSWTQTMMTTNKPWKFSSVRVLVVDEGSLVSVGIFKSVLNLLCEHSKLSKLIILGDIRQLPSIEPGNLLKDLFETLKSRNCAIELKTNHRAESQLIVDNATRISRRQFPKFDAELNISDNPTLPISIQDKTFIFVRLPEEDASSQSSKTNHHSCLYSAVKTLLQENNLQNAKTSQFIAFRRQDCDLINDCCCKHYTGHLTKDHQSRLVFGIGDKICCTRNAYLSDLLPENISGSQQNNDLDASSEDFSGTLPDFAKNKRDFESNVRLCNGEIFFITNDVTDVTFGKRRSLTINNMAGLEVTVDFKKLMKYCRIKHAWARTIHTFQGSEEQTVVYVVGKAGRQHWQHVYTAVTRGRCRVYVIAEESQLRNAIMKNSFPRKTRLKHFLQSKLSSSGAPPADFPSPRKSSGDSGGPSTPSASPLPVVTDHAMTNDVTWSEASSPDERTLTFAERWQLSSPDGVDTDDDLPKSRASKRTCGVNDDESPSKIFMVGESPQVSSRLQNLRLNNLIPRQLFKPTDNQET
# This is one part of the list.
# Compound: COc1ccc(Cn2ccc3ccc(C(=O)NO)cc32)cc1
# Test: dose-dependent thermal stabilisation call (2D-TPP, DLPTP, 10% FDR) (binary (1 = stabilised)); higher = stabilised by the compound
# Details: system: HL-60 intact cells; concentration range 0.04-10 µM
row,Target,dose-dependent thermal stabilisation call
1,HK2 (UniProt P52789),inactive: 0
2,GLTP (UniProt Q9NZD2),inactive: 0
3,GPATCH8 (UniProt Q9UKJ3),inactive: 0
4,GTF3C1 (UniProt Q12789),inactive: 0
5,HEATR3 (UniProt Q7Z4Q2),inactive: 0
6,HERC1 (UniProt Q15751),inactive: 0
7,HBA1 (UniProt P69905),inactive: 0
8,HEATR1 (UniProt Q9H583),inactive: 0
9,GOLM1 (UniProt Q8NBJ4),inactive: 0
10,GCDH (UniProt Q92947),active: 1
11,GLT25D2 (UniProt Q8IYK4),inactive: 0
12,H3F3A (UniProt P84243),inactive: 0
13,HERPUD1 (UniProt Q15011),inactive: 0
14,GLB1 (UniProt P16278),inactive: 0
15,HDAC10 (UniProt Q969S8),inactive: 0
16,GNA13 (UniProt Q14344),inactive: 0
17,GPN1 (UniProt Q9HCN4),inactive: 0
18,HARS (UniProt P12081),inactive: 0
19,GMDS (UniProt O60547),inactive: 0

row,Target,dose-dependent thermal stabilisation call
1,HAGH (UniProt Q16775),inactive: 0
2,GOSR1 (UniProt O95249),inactive: 0
3,GPR125 (UniProt Q8IWK6),inactive: 0
4,GNPAT (UniProt O15228),inactive: 0
5,GLMN (UniProt Q92990),inactive: 0
6,GLG1 (UniProt Q92896),inactive: 0
7,GUSB (UniProt P08236),inactive: 0
8,HELB (UniProt Q8NG08),inactive: 0
9,GNAI1 (UniProt P63096),inactive: 0
10,GCLM (UniProt P48507),inactive: 0
11,HIST1H1D (UniProt P16402),inactive: 0
12,HCG_20857,inactive: 0
13,GDAP2 (UniProt Q9NXN4),inactive: 0
14,GTF3A (UniProt Q92664),inactive: 0
15,HEATR7A (UniProt Q8NDA8),inactive: 0
16,GTPBP4 (UniProt Q9BZE4),inactive: 0
17,GOLGA7 (UniProt Q7Z5G4),inactive: 0
18,HBB (UniProt P68871),inactive: 0
19,HGS (UniProt O14964),inactive: 0

# Nothing new here: entries from further up.
row,Target,dose-dependent thermal stabilisation call
7,GUSB (UniProt P08236),inactive: 0
8,HELB (UniProt Q8NG08),inactive: 0
9,GNAI1 (UniProt P63096),inactive: 0
10,GCLM (UniProt P48507),inactive: 0
11,HIST1H1D (UniProt P16402),inactive: 0
12,HCG_20857,inactive: 0
13,GDAP2 (UniProt Q9NXN4),inactive: 0
14,GTF3A (UniProt Q92664),inactive: 0
15,HEATR7A (UniProt Q8NDA8),inactive: 0
